PubChem BioAssay AID686943 – Drosophila RNAi Screening Center, 2013
In all, the deposit lists about 23,000 reagents; below is a random part of those with a known target gene and a result. 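Extra replicates exist only for a retested subset of genes; insulin dose and duration not given; both raised and lowered dpERK matter.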 The numbers tell different reagents against one gene apart. Further read-outs or replicates are left out here. The record does not give: the amount of reagent, the time to read-out.

Screen: 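Knockdowns that increase or decrease active ERK after insulin receptor stimulation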 (primary screen)
Cell system: Drosophila S2R+ haemocyte-like cells expressing YFP-tagged ERK (Rolled)
Knock-down reagent: long dsRNA against Drosophila genes
Challenge: insulin stimulation versus unstimulated cells; dose and duration not given
Detection: 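Per-plate z-scores of phospho-ERK immunostaining normalised to YFP-tagged ERK, measured with and without insulin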
Reading the numbers: replicate 1, z-score of dpERK with insulin: higher = more active ERK per ERK-YFP after insulin

replicate 1, z-score of dpERK with insulin, by target gene and reagent
Dif: #1 0.27
CtsL1: #1 -0.09; #2 -0.16
Trs33: #1 1.03
CG8132: #1 0.86
CG34342: #1 0.55; #2 0.62
Pkd2: #1 1.24
Gcat: #1 -0.05
wry: #1 0.42; #2 0.98; #3 0.92
Xrp1: #1 -0.61; #2 0.08
hng1: #1 0.34
Rdh: #1 -2.49; #2 -1.75
nvy: #1 0.61
dally: #1 0.26; #2 0.13
ncm: #1 2.17
CG34129: #1 -1.1

Entries above whose target name starts with X or x (2):
replicate 1, z-score of dpERK with insulin, by target gene and reagent
Xrp1: #1 -0.61; #2 0.08

Continued:
replicate 1, z-score of dpERK with insulin, by target gene and reagent
mAcon1: #1 0.8
exp: #1 -2.94
ND-49L: #1 0.5
dome: #1 2.2
CG9205: #1 -0.13
CG12567: #1 0.54
Obp83g: #1 0.41
ATPsynF: #1 -0.17
Crys: #1 -0.15
lncRNA:CR32368: #1 -0.31
CG14756: #1 0.16
Wnt5: #1 0.29
CG11837: #1 -0.74
Cpsf5: #1 -1.16
COX6AL2: #1 0.84
CG16903: #1 1.52
CG7156: #1 0.4
